Reference: PubChem BioAssay AID504784 (Drosophila RNAi Screening Center, 2011)

Purpose: 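Genome-wide knock-down for genes giving too much or too little stored lipid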 (primary screen)
System: Drosophila Kc167 embryonic cells
Knock-down reagent: long dsRNA against Drosophila genes, about 250 ng dsRNA per well
Time to read-out: 4 days
Conditions: cells fed 400 µM oleic acid bound to BSA
Measured: 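Cells imaged and segmented; ratio of lipid droplet area to nuclear area, log-transformed, then normalised as a B-score over the screen; higher means more stored lipid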
Scale: droplet/nuclear area B-score: higher = more stored lipid (overstorage)
In all, the deposit lists about 17,000 reagents; below is an unselected part of those with a known target gene and a result. 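Each column is one replicate's B-score; the combined score over replicates was not deposited, so single values may mislead.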 A plus sign joins genes that one reagent is predicted to hit. Further read-outs or replicates are left out here.

no.	target gene	amplicon	droplet/nuclear area B-score, replicate 1
1	CG6073	DRSC15962	1.62
2	CG6073	DRSC22742	0.0303
3	CG13085	DRSC02189	0.476
4	btz	DRSC14566	2.41
5	PGRP-LA	DRSC10327	0.00856
6	PGRP-LA	DRSC10414	-0.195
7	Tet	DRSC08550	-0.487
8	Nup93-1	DRSC19344	-0.285
9	Elovl7	DRSC15452	0.375
10	Elovl7	DRSC21570	0.127
11	CG32487	DRSC21745	-0.206
12	CG14691	DRSC14914	-0.334
13	sno	DRSC20378	-0.102
14	CG14329	DRSC14808	-0.739
15	l(2)k09913	DRSC04699	0.503
16	Sodq	DRSC15924	0.348
17	CG7945 + yellow-k	DRSC10851	1.84
18	CG3880	DRSC04428	-1.02
19	CG3880	DRSC21404	1.04
20	CG31635	DRSC02273	-0.0772
21	CG31635	DRSC02274	-1.25
22	CG33013 (retired record)	DRSC06286	0.0574
23	nopo	DRSC06918	3.21
24	CG2260	DRSC18223	-0.257
25	alpha-Man-Ic	DRSC21674	0.162
26	CG12917	DRSC06231	0.647
27	dysc	DRSC10273	0.501
28	dysc	DRSC11040	-1.21
29	dysc	DRSC22334	-0.398
30	dysc	DRSC22824	-0.747
31	l(2)k09022	DRSC02108	0.02
32	dmrt93B	DRSC15865	-0.329
33	Su(H)	DRSC03445	-1.81
34	salm	DRSC03606	-1.18
35	swaPsi	DRSC21685	-1.14
36	pwn	DRSC06035	0.337
37	CG7536	DRSC20050	-1.04
38	CG17672	DRSC09230	-0.707
39	CG17672	DRSC10278	-1.17
40	Atg10	DRSC06172	0.426
41	CG14088	DRSC10092	1.01
42	Uhg2 + snoRNA:Me18S-G1620 + snoRNA:U14:30Ea	DRSC01100	1.22
43	CG13589	DRSC04225	0.707
44	CG8778	DRSC07264	-0.382
45	DCTN6-p27	DRSC02609	2.15
46	DCTN6-p27	DRSC22810	-0.0157
47	ssp	DRSC10252	1.28
48	Pi3K59F	DRSC04640	-0.242
49	CG14292	DRSC14772	-0.0296
50	Nepl17	DRSC14880	0.0655
51	Cyp4p2	DRSC07373	-0.456
52	nht	DRSC01976	-0.477
53	CG1764	DRSC19779	0.852
54	CG9826	DRSC04570	-0.8
55	Rae1	DRSC04577	-1.87
56	Rab2	DRSC05017	-0.606
57	klu	DRSC11357	-1.08
58	Syt7	DRSC17130	0.148
59	Syt7	DRSC17159	0.0378
60	CG14628	DRSC18626	-0.958
61	CG11857	DRSC14411	-0.163
62	CG7914	DRSC20068	0.0868
63	Pten	DRSC03402	1.02
64	CG15450	DRSC20522	-0.416
65	Dso1	DRSC21815	0.513
66	Cpsf6	DRSC10781	3.88
67	baz	DRSC20309	-0.421
68	CG13708	DRSC08317	1.93
69	FoxK	DRSC09859	2.02
70	not	DRSC11378	0.221
71	snoRNA:Me28S-C3227a + snoRNA:Me18S-A1061 + snoRNA:Me28S-C3227b + 7 more	DRSC05497	0.322
72	CG12025	DRSC08230	-1.46
73	SmydA-5	DRSC04867	0.576
74	RpS9	DRSC11273	6.51
75	CG5731	DRSC02883	1.41
76	Hr96	DRSC16707	0.78
77	CanA1	DRSC16600	-0.839
78	BigH1	DRSC15491	0.0175
79	Arr1	DRSC01867	0.474
80	CG4704	DRSC15628	-0.912
81	CG15878	DRSC08486	0.237
82	ths	DRSC06153	2.31
83	ths	DRSC23123	-0.0467

Copied from the entries so far (12 entries):
no.	target gene	amplicon	droplet/nuclear area B-score, replicate 1
54	CG9826	DRSC04570	-0.8
55	Rae1	DRSC04577	-1.87
56	Rab2	DRSC05017	-0.606
57	klu	DRSC11357	-1.08
58	Syt7	DRSC17130	0.148
59	Syt7	DRSC17159	0.0378
60	CG14628	DRSC18626	-0.958
61	CG11857	DRSC14411	-0.163
62	CG7914	DRSC20068	0.0868
63	Pten	DRSC03402	1.02
64	CG15450	DRSC20522	-0.416
65	Dso1	DRSC21815	0.513
